PubChem BioAssay AID652243 – Drosophila RNAi Screening Center | 2013

Purpose: 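Fly genes required for human androgen receptor driven transcription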 (primary screen)
Cell system: Drosophila S2R+ cells
Knock-down reagent: long dsRNA against Drosophila genes
Timing: 72 h (48 h, then 24 h hormone)
Conditions: synthetic androgen R1881 at 10 nM for 24 h
Read-out: 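Firefly light from an androgen-responsive reporter and Renilla control light per well, raw and unnormalised, for each of two replicates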
Scale: firefly reporter light: higher = more light from androgen-responsive reporter; Renilla control light: higher = more constitutive control signal (cell number, transfection)
Rule for the call: 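Across duplicate plates, a knock-down whose log firefly/Renilla ratio shifted a set fold down or up from the GFP/LacZ control mean was a hit; the downward cut appears as both 1.5 and 3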
Calls: active = hit: reporter lowered or raised; inactive = no hit
In all, the deposit lists about 24,000 reagents; this is an unselected part of those with a known target gene and a result. In the full data, 246 (1%) are marked active. 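Plates not normalised; calls are printed but the firefly/Renilla ratio behind them is not deposited; fold cut for lowering reported inconsistently.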 The raw values are shown without normalisation. Not stated in the record: the amount of reagent.

After knock-down of CG7488 [DRSC16250] the results were firefly reporter light, replicate 1 = 1.35e5; firefly reporter light, replicate 2 = 1.27e5; Renilla control light, replicate 1 = 1.94e6; Renilla control light, replicate 2 = 1.66e6; inactive.
Depletion of CG2685 [DRSC18463] gave: firefly reporter light, replicate 1 = 1.39e5; firefly reporter light, replicate 2 = 1.71e5; Renilla control light, replicate 1 = 2.17e6; Renilla control light, replicate 2 = 2.59e6; inactive.
Against CG2685 [DRSC27295], the values are firefly reporter light, replicate 1 = 3.51e5; firefly reporter light, replicate 2 = 2.74e5; Renilla control light, replicate 1 = 8.63e5; Renilla control light, replicate 2 = 8.03e5; inactive.
Knock-down of Cen [DRSC02704] came out at: firefly reporter light, replicate 1 = 1.01e6; firefly reporter light, replicate 2 = 1.33e6; Renilla control light, replicate 1 = 1.29e6; Renilla control light, replicate 2 = 2.00e6; inactive.
After knock-down of CG3376 [DRSC04362] the results were firefly reporter light, replicate 1 = 7.27e5; firefly reporter light, replicate 2 = 7.89e5; Renilla control light, replicate 1 = 5.57e5; Renilla control light, replicate 2 = 8.83e5; inactive.
After knock-down of CG3376 [DRSC26489], the record shows firefly reporter light, replicate 1 = 47783; firefly reporter light, replicate 2 = 59095; Renilla control light, replicate 1 = 67276; Renilla control light, replicate 2 = 72878; inactive.
After knock-down of Graf [DRSC20131] the results were firefly reporter light, replicate 1 = 1.28e5; firefly reporter light, replicate 2 = 1.20e5; Renilla control light, replicate 1 = 6.70e5; Renilla control light, replicate 2 = 6.79e5; inactive.
GstO2 [DRSC10691] gave firefly reporter light, replicate 1 = 4.30e5; firefly reporter light, replicate 2 = 4.44e5; Renilla control light, replicate 1 = 9.69e5; Renilla control light, replicate 2 = 1.26e6; inactive.
Knock-down of GstO2 [DRSC29069] came out at: firefly reporter light, replicate 1 = 6.00e5; firefly reporter light, replicate 2 = 5.36e5; Renilla control light, replicate 1 = 1.35e6; Renilla control light, replicate 2 = 1.12e6; inactive.
Against mib2 [DRSC02623] the deposit lists firefly reporter light, replicate 1 = 9.64e5; firefly reporter light, replicate 2 = 7.91e5; Renilla control light, replicate 1 = 1.28e6; Renilla control light, replicate 2 = 1.27e6; inactive.
Silencing of CG7251 [DRSC03039] resulted in: firefly reporter light, replicate 1 = 7.01e5; firefly reporter light, replicate 2 = 9.96e5; Renilla control light, replicate 1 = 1.47e6; Renilla control light, replicate 2 = 1.70e6; inactive.
CG7251 [DRSC28293] gave firefly reporter light, replicate 1 = 3.84e5; firefly reporter light, replicate 2 = 6.44e5; Renilla control light, replicate 1 = 8.85e5; Renilla control light, replicate 2 = 1.37e6; inactive.
Silencing of CG4842 [DRSC10453] resulted in: firefly reporter light, replicate 1 = 4.00e5; firefly reporter light, replicate 2 = 3.36e5; Renilla control light, replicate 1 = 2.96e6; Renilla control light, replicate 2 = 2.68e6; inactive.
With knock-down of Got1 [DRSC07177], the record shows firefly reporter light, replicate 1 = 4.82e5; firefly reporter light, replicate 2 = 6.30e5; Renilla control light, replicate 1 = 5.16e5; Renilla control light, replicate 2 = 4.52e5; inactive.
Got1 [DRSC26159] showed firefly reporter light, replicate 1 = 2.27e5; firefly reporter light, replicate 2 = 3.50e5; Renilla control light, replicate 1 = 5.35e5; Renilla control light, replicate 2 = 6.20e5; inactive.
With knock-down of e(y)3 [DRSC19450] the results were firefly reporter light, replicate 1 = 1.61e5; firefly reporter light, replicate 2 = 2.00e5; Renilla control light, replicate 1 = 4.42e5; Renilla control light, replicate 2 = 7.45e5; inactive.
With knock-down of e(y)3 [DRSC23698], the record shows firefly reporter light, replicate 1 = 4.73e5; firefly reporter light, replicate 2 = 2.72e5; Renilla control light, replicate 1 = 3.57e5; Renilla control light, replicate 2 = 3.35e5; inactive.
CG7091 [DRSC12944] gave firefly reporter light, replicate 1 = 1.29e5; firefly reporter light, replicate 2 = 96782; Renilla control light, replicate 1 = 91399; Renilla control light, replicate 2 = 1.39e5; inactive.
For CG7091 [DRSC16197], the values are firefly reporter light, replicate 1 = 77962; firefly reporter light, replicate 2 = 83947; Renilla control light, replicate 1 = 1.88e6; Renilla control light, replicate 2 = 1.63e6; inactive.
Depletion of vilya [DRSC18588] gave: firefly reporter light, replicate 1 = 2.13e5; firefly reporter light, replicate 2 = 1.57e5; Renilla control light, replicate 1 = 3.52e6; Renilla control light, replicate 2 = 2.75e6; inactive.
With knock-down of Debcl [DRSC04965], the screen gave firefly reporter light, replicate 1 = 1.06e6; firefly reporter light, replicate 2 = 1.05e6; Renilla control light, replicate 1 = 2.16e6; Renilla control light, replicate 2 = 2.60e6; inactive.
Debcl [DRSC30010] scored firefly reporter light, replicate 1 = 4.61e5; firefly reporter light, replicate 2 = 4.17e5; Renilla control light, replicate 1 = 1.03e6; Renilla control light, replicate 2 = 1.16e6; inactive.
After knock-down of NetB [DRSC20262], the screen gave firefly reporter light, replicate 1 = 97905; firefly reporter light, replicate 2 = 97543; Renilla control light, replicate 1 = 6.46e5; Renilla control light, replicate 2 = 6.93e5; inactive.
NetB [DRSC26437] showed firefly reporter light, replicate 1 = 2.50e5; firefly reporter light, replicate 2 = 3.21e5; Renilla control light, replicate 1 = 5.05e5; Renilla control light, replicate 2 = 3.55e5; inactive.
Knock-down of CG15561 [DRSC15100] gave: firefly reporter light, replicate 1 = 2.28e5; firefly reporter light, replicate 2 = 2.33e5; Renilla control light, replicate 1 = 1.94e6; Renilla control light, replicate 2 = 3.16e6; inactive.
With knock-down of CG15561 [DRSC24085], the record shows firefly reporter light, replicate 1 = 1.27e6; firefly reporter light, replicate 2 = 9.04e5; Renilla control light, replicate 1 = 7.12e5; Renilla control light, replicate 2 = 6.96e5; inactive.
Against CG4592 [DRSC02761] the deposit lists firefly reporter light, replicate 1 = 6.38e5; firefly reporter light, replicate 2 = 5.28e5; Renilla control light, replicate 1 = 2.25e6; Renilla control light, replicate 2 = 2.26e6; inactive.

In a second layout: results already given
gene knocked down,DRSC id,"firefly reporter light, replicate 1","firefly reporter light, replicate 2","Renilla control light, replicate 1","Renilla control light, replicate 2",activity call
GstO2,DRSC29069,6.00e5,5.36e5,1.35e6,1.12e6,inactive
mib2,DRSC02623,9.64e5,7.91e5,1.28e6,1.27e6,inactive
CG7251,DRSC03039,7.01e5,9.96e5,1.47e6,1.70e6,inactive
